# Assay results published in the supplement of paper PMC8728848.
# Some of the results follow.
# B1: AT1G80310(18) (Arabidopsis thaliana), Q0WP36 (protein)
# chain: METTTTPLLPGDRSRCGWLRRRLRLKNPLSSELSGAVGDLGTFIPIVLTLTLVSNLDLSTTLIFTGFYNIATGLLFDIPMPVQPMKSIAAVAVSESPHLTPSQIAAAGASTAATLLLLGATGAMSFLYNIIPLPVVRGVQLSQGLQFAFTAIKYVRFNYDTATLKPSSSPRIWLGLDGLILALAALLFIILSTGSGNDREAEDGDLAETSSNESQSRRRRLRLLSSIPSALIVFALGLVLCFIRDPSIFKDLKFGPSKFHILRISWDDWKIGFLRAAIPQIPLSVLNSVIAVCKLSNDLFDKELSATTVSISVGVMNLIGCWFGAMPVCHGAGGLAGQYRFGARSGLSVIFLGIGKLIVGLVFGNSFVRILSQFPIGILGVLLLFAGIELAMASKDMNSKEDSFIMLVCAAVSMTGSSAALGFGCGVVLYLLLKLRTLDCSSVTLFSRSSDESQVDSEAAPRDV
# Columns and labels:
# Assay in all cases: glycan array binding signal (z-score within array); higher = stronger binding
# Settings in all cases: glycan notation: IUPAC condensed, linker removed
# [1] = molecular target: Gal(b1-3)[Fuc(a1-4)]GlcNAc(b1-3)Gal(b1-4)[Fuc(a1-3)]GlcNAc
# How it was run: (§1)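 Glycan array data were curated from 3228 arrays in the Consortium for Functional Glycomics database and kept only where the protein sequence was available. Glycan names were converted to IUPAC-condensed notation, and columns mapping to the same glycan were averaged. The binding signal is a within-array Z-score, averaged across arrays of the same protein sequence at different concentrations or buffers and across linkers. Negative Z-scores can be read as non-binding.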
# [2] = molecular target: Gal(b1-3)[Fuc(a1-4)]GlcNAc(b1-6)GalNAc
# How it was run: as §1
# [3] = molecular target: Gal(b1-3)[GlcNAc(b1-6)]GalNAc
# How it was run: as §1
# [4] = molecular target: Gal(b1-3)[Neu5Ac(a2-6)]GalNAc
# How it was run: as §1
# [5] = molecular target: Gal(b1-3)[Neu5Ac(a2-6)]GlcNAc(b1-4)Gal(b1-4)Glc
# How it was run: as §1
# [6] = molecular target: Gal(b1-3)[Neu5Ac(b2-6)]GalNAc
# How it was run: as §1
# Gal(b1-4)Gal = molecular target: Gal(b1-4)Gal
# How it was run: as §1
# [7] = molecular target: Gal(b1-4)GalNAc(a1-3)[Fuc(a1-2)]Gal(b1-4)GlcNAc
# How it was run: as §1
# [8] = molecular target: Gal(b1-4)GalNAc(b1-3)[Fuc(a1-2)]Gal(b1-4)GlcNAc
# How it was run: as §1
# Gal(b1-4)Glc = molecular target: Gal(b1-4)Glc
# How it was run: as §1
# Gal(b1-4)Glc6S = molecular target: Gal(b1-4)Glc6S
# How it was run: as §1
# Gal(b1-4)GlcNAc = molecular target: Gal(b1-4)GlcNAc
# How it was run: as §1
# [9] = molecular target: Gal(b1-4)GlcNAc(a1-6)Gal(b1-4)GlcNAc
# How it was run: as §1
# Gal(b1-4)GlcNAc(b1-2)Man = molecular target: Gal(b1-4)GlcNAc(b1-2)Man
# How it was run: as §1
# [10] = molecular target: Gal(b1-4)GlcNAc(b1-2)Man(a1-3)Man(b1-4)GlcNAc(b1-4)GlcNAc
# How it was run: as §1
# [11] = molecular target: Gal(b1-4)GlcNAc(b1-2)Man(a1-3)[Gal(b1-4)GlcNAc(b1-2)Man(a1-6)]Man(b1-4)GlcNAc(b1-4)GlcNAc
# How it was run: as §1
# [12] = molecular target: Gal(b1-4)GlcNAc(b1-2)Man(a1-3)[Gal(b1-4)GlcNAc(b1-2)Man(a1-6)]Man(b1-4)GlcNAc(b1-4)[Fuc(a1-6)]GlcNAc
# How it was run: as §1
# [13] = molecular target: Gal(b1-4)GlcNAc(b1-2)Man(a1-3)[Gal(b1-4)GlcNAc(b1-2)Man(a1-6)][Gal(b1-4)GlcNAc(b1-4)]Man(b1-4)GlcNAc(b1-4)[Fuc(a1-6)]GlcNAc
# How it was run: as §1
# [14] = molecular target: Gal(b1-4)GlcNAc(b1-2)Man(a1-3)[Gal(b1-4)GlcNAc(b1-2)Man(a1-6)][GlcNAc(b1-4)]Man(b1-4)GlcNAc(b1-4)[Fuc(a1-6)]GlcNAc
# How it was run: as §1
# [15] = molecular target: Gal(b1-4)GlcNAc(b1-2)Man(a1-3)[GlcNAc(b1-2)Man(a1-6)]Man(b1-4)GlcNAc(b1-4)GlcNAc
# How it was run: as §1
# [16] = molecular target: Gal(b1-4)GlcNAc(b1-2)Man(a1-3)[GlcNAc(b1-4)][Gal(b1-4)GlcNAc(b1-2)Man(a1-6)]Man(b1-4)GlcNAc(b1-4)GlcNAc
# How it was run: as §1
# [17] = molecular target: Gal(b1-4)GlcNAc(b1-2)Man(a1-3)[Man(a1-6)]Man(b1-4)GlcNAc(b1-4)GlcNAc
# How it was run: as §1
# [18] = molecular target: Gal(b1-4)GlcNAc(b1-2)Man(a1-6)Man(b1-4)GlcNAc(b1-4)GlcNAc
# How it was run: as §1
# [19] = molecular target: Gal(b1-4)GlcNAc(b1-2)Man(a1-6)[GlcNAc(b1-2)Man(a1-3)]Man(b1-4)GlcNAc(b1-4)GlcNAc
# How it was run: as §1
# [20] = molecular target: Gal(b1-4)GlcNAc(b1-2)Man(a1-6)[Man(a1-3)]Man(b1-4)GlcNAc(b1-4)GlcNAc
# How it was run: as §1
# [21] = molecular target: Gal(b1-4)GlcNAc(b1-2)[Gal(b1-4)GlcNAc(b1-4)]Man(a1-3)[Gal(b1-4)GlcNAc(b1-2)Man(a1-6)]Man(b1-4)GlcNAc(b1-4)GlcNAc
# How it was run: as §1
# [22] = molecular target: Gal(b1-4)GlcNAc(b1-2)[Gal(b1-4)GlcNAc(b1-4)]Man(a1-3)[Gal(b1-4)GlcNAc(b1-2)[Gal(b1-4)GlcNAc(b1-6)]Man(a1-6)]Man(b1-4)GlcNAc(b1-4)GlcNAc
# How it was run: as §1
# [23] = molecular target: Gal(b1-4)GlcNAc(b1-2)[Gal(b1-4)GlcNAc(b1-4)]Man(a1-3)[GlcNAc(b1-4)][Gal(b1-4)GlcNAc(b1-2)Man(a1-6)]Man(b1-4)GlcNAc(b1-4)GlcNAc
# How it was run: as §1
# [24] = molecular target: Gal(b1-4)GlcNAc(b1-2)[Gal(b1-4)GlcNAc(b1-4)]Man(a1-3)[GlcNAc(b1-4)][Gal(b1-4)GlcNAc(b1-2)[Gal(b1-4)GlcNAc(b1-6)]Man(a1-6)]Man(b1-4)GlcNAc(b1-4)GlcNAc
# How it was run: as §1
# [25] = molecular target: Gal(b1-4)GlcNAc(b1-2)[Gal(b1-4)GlcNAc(b1-6)]Man(a1-6)[Gal(b1-4)GlcNAc(b1-2)Man(a1-3)]Man(b1-4)GlcNAc(b1-4)GlcNAc
# How it was run: as §1
# [26] = molecular target: Gal(b1-4)GlcNAc(b1-2)[Gal(b1-4)GlcNAc(b1-6)]Man(a1-6)[Gal(b1-4)GlcNAc(b1-2)Man(a1-3)]Man(b1-4)GlcNAc(b1-4)[Fuc(a1-6)]GlcNAc
# How it was run: as §1
# [27] = molecular target: Gal(b1-4)GlcNAc(b1-2)[Gal(b1-4)GlcNAc(b1-6)]Man(a1-6)[GlcNAc(b1-4)][Gal(b1-4)GlcNAc(b1-2)Man(a1-3)]Man(b1-4)GlcNAc(b1-4)GlcNAc
# How it was run: as §1
# [28] = molecular target: Gal(b1-4)GlcNAc(b1-2)[Gal(b1-4)GlcNAc(b1-6)]Man(a1-6)[GlcNAc(b1-4)][Gal(b1-4)GlcNAc(b1-2)[Gal(b1-4)GlcNAc(b1-4)]Man(a1-3)]Man(b1-4)GlcNAc(b1-4)[Fuc(a1-6)]GlcNAc
# How it was run: as §1
# [29] = molecular target: Gal(b1-4)GlcNAc(b1-3)Gal(b1-3)GalNAc
# How it was run: as §1
# [30] = molecular target: Gal(b1-4)GlcNAc(b1-3)Gal(b1-3)GlcNAc
# How it was run: as §1
# [31] = molecular target: Gal(b1-4)GlcNAc(b1-3)Gal(b1-4)Glc
# How it was run: as §1
# [32] = molecular target: Gal(b1-4)GlcNAc(b1-3)Gal(b1-4)GlcNAc
# How it was run: as §1
# [33] = molecular target: Gal(b1-4)GlcNAc(b1-3)Gal(b1-4)GlcNAc(b1-2)Man(a1-3)[Gal(b1-4)GlcNAc(b1-3)Gal(b1-4)GlcNAc(b1-2)Man(a1-6)]Man(b1-4)GlcNAc(b1-4)GlcNAc
# How it was run: as §1
binder,measurement,setting,value
B1,glycan array binding signal (z-score),[1],-0.847
same,glycan array binding signal (z-score),[2],-0.486
same,glycan array binding signal (z-score),[3],0.239
same,glycan array binding signal (z-score),[4],1.3
same,glycan array binding signal (z-score),[5],-0.56
same,glycan array binding signal (z-score),[6],1.99
same,glycan array binding signal (z-score),Gal(b1-4)Gal,1.12
same,glycan array binding signal (z-score),[7],-0.77
same,glycan array binding signal (z-score),[8],-0.604
same,glycan array binding signal (z-score),Gal(b1-4)Glc,-0.001
same,glycan array binding signal (z-score),Gal(b1-4)Glc6S,-0.691
same,glycan array binding signal (z-score),Gal(b1-4)GlcNAc,1.65
same,glycan array binding signal (z-score),[9],-0.491
same,glycan array binding signal (z-score),Gal(b1-4)GlcNAc(b1-2)Man,-0.609
same,glycan array binding signal (z-score),[10],-0.223
same,glycan array binding signal (z-score),[11],-0.701
same,glycan array binding signal (z-score),[12],-0.489
same,glycan array binding signal (z-score),[13],-0.313
same,glycan array binding signal (z-score),[14],4.28
same,glycan array binding signal (z-score),[15],-0.038
same,glycan array binding signal (z-score),[16],-0.179
same,glycan array binding signal (z-score),[17],0.388
same,glycan array binding signal (z-score),[18],-0.165
same,glycan array binding signal (z-score),[19],-0.769
same,glycan array binding signal (z-score),[20],0.006
same,glycan array binding signal (z-score),[21],0.305
same,glycan array binding signal (z-score),[22],-0.459
same,glycan array binding signal (z-score),[23],-0.691
same,glycan array binding signal (z-score),[24],-0.562
same,glycan array binding signal (z-score),[25],0.482
same,glycan array binding signal (z-score),[26],0.23
same,glycan array binding signal (z-score),[27],0.735
same,glycan array binding signal (z-score),[28],2.65
same,glycan array binding signal (z-score),[29],-0.393
same,glycan array binding signal (z-score),[30],1.15
same,glycan array binding signal (z-score),[31],0.568
same,glycan array binding signal (z-score),[32],0.504
same,glycan array binding signal (z-score),[33],-0.442

# Not a retest: entries from further up.
binder,measurement,setting,value
B1,glycan array binding signal (z-score),[24],-0.562
same,glycan array binding signal (z-score),[25],0.482
same,glycan array binding signal (z-score),[26],0.23
